Measured values from publication PMC6295076.
Results are given in words; binding and its absence hold for the method and conditions named. Some entries that bind do so weakly or less than the wild type.

Target: T1, cyclin G2 (wild-type, yeast two-hybrid bait in pGBKT7) (UniProt Q16589)
T1 sequence: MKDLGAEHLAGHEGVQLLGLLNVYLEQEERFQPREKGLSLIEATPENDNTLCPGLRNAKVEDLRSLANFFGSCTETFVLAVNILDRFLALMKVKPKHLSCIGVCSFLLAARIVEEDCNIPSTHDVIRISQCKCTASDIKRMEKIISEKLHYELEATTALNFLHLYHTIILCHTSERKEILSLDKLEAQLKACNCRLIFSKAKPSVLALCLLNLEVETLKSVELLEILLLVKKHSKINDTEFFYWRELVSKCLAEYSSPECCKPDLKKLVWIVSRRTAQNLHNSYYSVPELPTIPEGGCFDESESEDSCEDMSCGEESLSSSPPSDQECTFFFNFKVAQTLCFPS
Experiment: two-hybrid; cyclin G2 in pGBKT7 as bait, screen of a human fetal brain cDNA library; selection on medium lacking His, Leu and Trp, beta-galactosidase assay; confirmed by retransforming the identified plasmids with the bait

- binding: binds
B1: hDpr1 (full-length clone from the human fetal brain cDNA library) (protein, UniProt Q9NYF0 1-836)
chain: MKPSPAGTAKELEPPAPARGEQRTAEPEGRWREKGEADTERQRTRERQEATLAGLAELEYLRQRQELLVRGALRGAGGAGAAAPRAGELLGEAAQRSRLEEKFLEENILLLRKQLNCLRRRDAGLLNQLQELDKQISDLRLDVEKTSEEHLETDSRPSSGFYELSDGASGSLSNSSNSVFSECLSSCHSSTCFCSPLEATLSLSDGCPKSADLIGLLEYKEGHCEDQASGAVCRSLSTPQFNSLDVIADVNPKYQCDLVSKNGNDVYRYPSPLHAVAVQSPMFLLCLTGNPLREEDRLGNHASDICGGSELDAVKTDSSLPSPSSLWSASHPSSSKKMDGYILSLVQKKTHPVRTNKPRTSVNADPTKGLLRNGSVCVRAPGGVSQGNSVNLKNSKQACLPSGGIPSLNNGTFSPPKQWSKESKAEQAESKRVPLPEGCPSGAASDLQSKHLPKTAKPASQEHARCSAIGTGESPKESAQLSGASPKESPSRGPAPPQENKVVQPLKKMSQKNSLQGVPPATPPLLSTAFPVEERPALDFKSEGSSQSLEEAHLVKAQFIPGQQPSVRLHRGHRNMGVVKNSSLKHRGPALQGLENGLPTVREKTRAGSKKCRFPDDLDTNKKLKKASSKGRKSGGGPEAGVPGRPAGGGHRAGSRAHGHGREAVVAKPKHKRTDYRRWKSSAEISYEEALRRARRGRRENVGLYPAPVPLPYASPYAYVASDSEYSAECESLFHSTVVDTSEDEQSNYTTNCFGDSESSVSEGEFVGESTTTSDSEESGGLIWSQFVQTLPIQTVTAPDLHNHPAKTFVKIKASHNLKKKILRFRSGSLKLMTTV
